{"source": "PubChem BioAssay AID504791 (Drosophila RNAi Screening Center, 2011)", "test": "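Genes whose knock-down strengthens or weakens small-RNA reporter silencing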 (primary screen)", "system": "Drosophila S2-derived reporter cells", "reagent": "long dsRNA against Drosophila genes, about 150-250 ng dsRNA per well (siRNA assay); about 80-120 ng (miRNA assay)", "timing": "about 5 days (siRNA assay); about 4 days (miRNA assay)", "treatment": "copper sulfate induction of reporters: 25 µM (siRNA assay); 200 mM stated (miRNA assay), 1-2 days before reading", "detection": "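Per-well ratio of Renilla over firefly light, expressed relative to that plate's average ratio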", "units": "stable assay Renilla, run 1 in luminescence; stable assay firefly, run 1 in luminescence", "rule for the call": "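First-pass picks had plate-scaled ratios over 1.5 for the siRNA assay, over 1.6 for the miRNA assay, or under 0.6; two distinct dsRNAs had to score alike on retest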", "note": "The deposit covers about 23,000 reagents; shown is a random part of those that have a named target and a result. Of all reagents, 199 (0.86%) got an active call. 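Plate-scaled ratios behind the calls are not deposited; printed light signals are raw; many rows marked increased or decreased are still called inactive.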 Unmarked entries are inactive. The numbers tell different reagents against one gene apart. A plus sign joins genes that one reagent is predicted to hit. Reagent sequences are not shown. The record does not give: the direction of the score."}
{"gene knocked down": "CG2256", "dsRNA no.": 1, "stable assay Renilla, run 1": 5323, "stable assay firefly, run 1": 3.01e5}
{"gene knocked down": "RpL3 + CG6693", "dsRNA no.": 1, "stable assay Renilla, run 1": 8114, "stable assay firefly, run 1": 5.39e5}
{"gene knocked down": "rst", "dsRNA no.": 1, "stable assay Renilla, run 1": 7327, "stable assay firefly, run 1": 3.08e5}
{"gene knocked down": "rst", "dsRNA no.": 2, "stable assay Renilla, run 1": 6120, "stable assay firefly, run 1": 3.24e5}
{"gene knocked down": "Fum3", "dsRNA no.": 1, "stable assay Renilla, run 1": 6411, "stable assay firefly, run 1": 3.16e5}
{"gene knocked down": "CG17159 + CG17162", "dsRNA no.": 1, "stable assay Renilla, run 1": 6795, "stable assay firefly, run 1": 3.91e5}
{"gene knocked down": "CG17159 + CG17162", "dsRNA no.": 2, "stable assay Renilla, run 1": 5639, "stable assay firefly, run 1": 4.31e5}
{"gene knocked down": "CG32700", "dsRNA no.": 1, "stable assay Renilla, run 1": 5410, "stable assay firefly, run 1": 3.90e5}
{"gene knocked down": "CG32700", "dsRNA no.": 2, "stable assay Renilla, run 1": 5371, "stable assay firefly, run 1": 4.21e5}
{"gene knocked down": "CG31673", "dsRNA no.": 1, "stable assay Renilla, run 1": 81135, "stable assay firefly, run 1": 6.56e5}
{"gene knocked down": "Pif1A + Pif1B", "dsRNA no.": 1, "stable assay Renilla, run 1": 6212, "stable assay firefly, run 1": 4.38e5}
{"gene knocked down": "Pif1A + Pif1B", "dsRNA no.": 2, "stable assay Renilla, run 1": 7490, "stable assay firefly, run 1": 4.39e5}
{"gene knocked down": "Pif1A + Pif1B", "dsRNA no.": 3, "stable assay Renilla, run 1": 6307, "stable assay firefly, run 1": 4.06e5}
{"gene knocked down": "CG42307 + mus312", "dsRNA no.": 1, "stable assay Renilla, run 1": 6586, "stable assay firefly, run 1": 4.11e5}
{"gene knocked down": "CG10657", "dsRNA no.": 1, "stable assay Renilla, run 1": 4691, "stable assay firefly, run 1": 3.92e5}
{"gene knocked down": "Mt2", "dsRNA no.": 1, "stable assay Renilla, run 1": 7126, "stable assay firefly, run 1": 4.64e5}
{"gene knocked down": "CG2906", "dsRNA no.": 1, "stable assay Renilla, run 1": 6963, "stable assay firefly, run 1": 4.58e5}
{"gene knocked down": "CG18549", "dsRNA no.": 1, "stable assay Renilla, run 1": 7414, "stable assay firefly, run 1": 3.99e5}
{"gene knocked down": "CG12868", "dsRNA no.": 1, "stable assay Renilla, run 1": 7879, "stable assay firefly, run 1": 4.86e5}
{"gene knocked down": "Atg10 + CG12822", "dsRNA no.": 1, "stable assay Renilla, run 1": 7331, "stable assay firefly, run 1": 3.97e5}
{"gene knocked down": "Syt4", "dsRNA no.": 1, "stable assay Renilla, run 1": 7207, "stable assay firefly, run 1": 3.32e5}
{"gene knocked down": "CG10660", "dsRNA no.": 1, "stable assay Renilla, run 1": 10901, "stable assay firefly, run 1": 5.01e5}
{"gene knocked down": "glu", "dsRNA no.": 1, "stable assay Renilla, run 1": 28626, "stable assay firefly, run 1": 2.09e6}
{"gene knocked down": "CG14400", "dsRNA no.": 1, "stable assay Renilla, run 1": 8197, "stable assay firefly, run 1": 4.10e5}
{"gene knocked down": "CG14689", "dsRNA no.": 1, "stable assay Renilla, run 1": 6835, "stable assay firefly, run 1": 3.85e5}
{"gene knocked down": "eIF3m", "dsRNA no.": 1, "stable assay Renilla, run 1": 6886, "stable assay firefly, run 1": 3.85e5}
{"gene knocked down": "drk", "dsRNA no.": 1, "stable assay Renilla, run 1": 7030, "stable assay firefly, run 1": 3.54e5}
{"gene knocked down": "CG18418", "dsRNA no.": 1, "stable assay Renilla, run 1": 7198, "stable assay firefly, run 1": 3.72e5}

Part of the list above, limited to “stable assay firefly, run 1”:
CG2906: 4.58e5
CG18549: 3.99e5
CG12868: 4.86e5
